Data taken from US6465479B1, “Pyridomorphinans and use thereof” (Southern Research Institute, priority 1999, dated 2002).

Tested on: male ICR mice
Assay: Acetic acid writhing assay, antinociception, tolerance and antagonist pretreatment
Assay type: in vivo, mouse
Settings: for Tolerance Shift i.p.: repeated/control A50, i.p.
Method: In the following examples, male ICR mice(20-30 grams) were used. […] The solution was brought up to approximately pH 5.5 with 1.74 M NaOH and then the final volume adjusted with distilled water. […] Additional compounds used in these studies were dissolved in distilled water (i.c.v. injections) or physiological saline (i.p. injections).
Antinociception was assessed using either the 55° C. warm-water tail-flick test or the acetic-acid writhing assay. […] Each mouse was first tested for baseline latency by immersing its tail in the water and recording the time to response. Mice not responding within 5 sec were excluded from further testing. Mice were then administered the test compound and tested for antinociception at 10, 20, 30, 45, 60 and 90 min post-injection. A maximum score was assigned (100%) to animals not responding within 15 sec to avoid tissue damage. Antinociception was calculated by the following formula: % antinociception=100×(test latency-control latency)/(15-control latency). For the acetic acid writhing test, mice were injected i.p. with 0.9% acetic acid. They were then placed in a clear Plexiglas observation jar and the number of abdominal writhes recorded for 15 min (Mogil et al., Heritability of nociception I: responses of 11 inbred mouse strains on 12 measures of nociception. Pain 80:67-82,1999). Percent antinociception was calculated using the formula: % MPE (maximum possible effect)=100−((#writhes individual mouse/mean # writhes control group)×100).
Control mice received a vehicle injection (5 μl distilled water, i.c.v., −24 hr).

CN1CC[C@]23c4c5ccc(O)c4O[C@H]2[C@@H](O)C=C[C@H]3[C@H]1C5 [morphine]
agonist character in acetic acid writhing, i.c.v. (icv injection): full agonist effect | Tolerance Shift i.c.v. (repeated/control A50, i.c.v., A90 dose ×2 daily, 3 days): 12.5 fold | Tolerance Shift i.p. (A90 dose ×2 daily, 3 days): approximately 2.2 fold | Tolerance Shift i.p. (A90 dose ×2 daily, 3 days, listed as Morphine): 2.17 fold
